Experimental data: publication doi:10.1101/2022.05.04.490592
Results are given in words; binding and its absence hold for the method and conditions named. Binding seen in cells or lysates may run through a third protein. A yes stands for co-enrichment or nearness to the bait. Other partners may have been found. Blank lines part the entries; values can stand above or below the molecule they belong to.

By UniProt entry, the sequences of proteins in these tests, tags left out.
UniProt Q9NP66: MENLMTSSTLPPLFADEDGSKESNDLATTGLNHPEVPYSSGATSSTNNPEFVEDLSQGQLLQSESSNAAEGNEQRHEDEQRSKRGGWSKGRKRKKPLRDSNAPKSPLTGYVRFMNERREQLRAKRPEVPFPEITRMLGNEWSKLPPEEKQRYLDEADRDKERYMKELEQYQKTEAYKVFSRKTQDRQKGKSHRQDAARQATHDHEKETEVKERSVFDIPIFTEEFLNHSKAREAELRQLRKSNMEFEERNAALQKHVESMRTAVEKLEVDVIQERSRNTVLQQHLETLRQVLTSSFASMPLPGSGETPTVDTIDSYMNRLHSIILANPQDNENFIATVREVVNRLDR
UniProt Q96BD5: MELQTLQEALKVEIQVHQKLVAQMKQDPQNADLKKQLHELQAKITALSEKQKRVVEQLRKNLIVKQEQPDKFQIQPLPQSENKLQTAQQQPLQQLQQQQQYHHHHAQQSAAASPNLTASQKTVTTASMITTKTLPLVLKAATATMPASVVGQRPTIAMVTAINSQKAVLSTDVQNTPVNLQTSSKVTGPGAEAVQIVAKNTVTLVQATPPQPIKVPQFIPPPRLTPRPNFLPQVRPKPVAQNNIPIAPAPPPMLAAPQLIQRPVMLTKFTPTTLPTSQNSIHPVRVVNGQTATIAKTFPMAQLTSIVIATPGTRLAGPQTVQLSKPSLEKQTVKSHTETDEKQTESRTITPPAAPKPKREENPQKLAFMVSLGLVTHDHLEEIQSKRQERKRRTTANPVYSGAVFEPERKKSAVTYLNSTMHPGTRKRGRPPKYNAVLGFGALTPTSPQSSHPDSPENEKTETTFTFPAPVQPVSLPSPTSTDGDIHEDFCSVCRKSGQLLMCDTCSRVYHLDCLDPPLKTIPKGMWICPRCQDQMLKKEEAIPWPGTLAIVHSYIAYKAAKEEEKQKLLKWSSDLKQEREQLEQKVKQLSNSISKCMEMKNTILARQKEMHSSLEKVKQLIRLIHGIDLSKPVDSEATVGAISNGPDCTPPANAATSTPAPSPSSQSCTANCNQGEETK
UniProt Q9UKL0: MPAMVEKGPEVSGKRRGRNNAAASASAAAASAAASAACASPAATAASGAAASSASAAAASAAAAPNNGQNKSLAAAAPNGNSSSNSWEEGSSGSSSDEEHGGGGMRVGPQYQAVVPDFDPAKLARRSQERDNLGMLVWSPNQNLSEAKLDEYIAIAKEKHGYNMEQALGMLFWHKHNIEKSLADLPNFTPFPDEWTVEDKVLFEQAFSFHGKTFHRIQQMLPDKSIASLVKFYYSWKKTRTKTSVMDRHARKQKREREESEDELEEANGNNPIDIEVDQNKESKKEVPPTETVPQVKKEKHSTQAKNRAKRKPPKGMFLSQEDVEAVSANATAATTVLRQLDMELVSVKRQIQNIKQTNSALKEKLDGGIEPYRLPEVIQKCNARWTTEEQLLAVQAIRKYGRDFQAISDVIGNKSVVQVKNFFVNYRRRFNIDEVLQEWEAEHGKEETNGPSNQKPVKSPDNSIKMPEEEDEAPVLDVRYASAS
UniProt Q7Z5J4: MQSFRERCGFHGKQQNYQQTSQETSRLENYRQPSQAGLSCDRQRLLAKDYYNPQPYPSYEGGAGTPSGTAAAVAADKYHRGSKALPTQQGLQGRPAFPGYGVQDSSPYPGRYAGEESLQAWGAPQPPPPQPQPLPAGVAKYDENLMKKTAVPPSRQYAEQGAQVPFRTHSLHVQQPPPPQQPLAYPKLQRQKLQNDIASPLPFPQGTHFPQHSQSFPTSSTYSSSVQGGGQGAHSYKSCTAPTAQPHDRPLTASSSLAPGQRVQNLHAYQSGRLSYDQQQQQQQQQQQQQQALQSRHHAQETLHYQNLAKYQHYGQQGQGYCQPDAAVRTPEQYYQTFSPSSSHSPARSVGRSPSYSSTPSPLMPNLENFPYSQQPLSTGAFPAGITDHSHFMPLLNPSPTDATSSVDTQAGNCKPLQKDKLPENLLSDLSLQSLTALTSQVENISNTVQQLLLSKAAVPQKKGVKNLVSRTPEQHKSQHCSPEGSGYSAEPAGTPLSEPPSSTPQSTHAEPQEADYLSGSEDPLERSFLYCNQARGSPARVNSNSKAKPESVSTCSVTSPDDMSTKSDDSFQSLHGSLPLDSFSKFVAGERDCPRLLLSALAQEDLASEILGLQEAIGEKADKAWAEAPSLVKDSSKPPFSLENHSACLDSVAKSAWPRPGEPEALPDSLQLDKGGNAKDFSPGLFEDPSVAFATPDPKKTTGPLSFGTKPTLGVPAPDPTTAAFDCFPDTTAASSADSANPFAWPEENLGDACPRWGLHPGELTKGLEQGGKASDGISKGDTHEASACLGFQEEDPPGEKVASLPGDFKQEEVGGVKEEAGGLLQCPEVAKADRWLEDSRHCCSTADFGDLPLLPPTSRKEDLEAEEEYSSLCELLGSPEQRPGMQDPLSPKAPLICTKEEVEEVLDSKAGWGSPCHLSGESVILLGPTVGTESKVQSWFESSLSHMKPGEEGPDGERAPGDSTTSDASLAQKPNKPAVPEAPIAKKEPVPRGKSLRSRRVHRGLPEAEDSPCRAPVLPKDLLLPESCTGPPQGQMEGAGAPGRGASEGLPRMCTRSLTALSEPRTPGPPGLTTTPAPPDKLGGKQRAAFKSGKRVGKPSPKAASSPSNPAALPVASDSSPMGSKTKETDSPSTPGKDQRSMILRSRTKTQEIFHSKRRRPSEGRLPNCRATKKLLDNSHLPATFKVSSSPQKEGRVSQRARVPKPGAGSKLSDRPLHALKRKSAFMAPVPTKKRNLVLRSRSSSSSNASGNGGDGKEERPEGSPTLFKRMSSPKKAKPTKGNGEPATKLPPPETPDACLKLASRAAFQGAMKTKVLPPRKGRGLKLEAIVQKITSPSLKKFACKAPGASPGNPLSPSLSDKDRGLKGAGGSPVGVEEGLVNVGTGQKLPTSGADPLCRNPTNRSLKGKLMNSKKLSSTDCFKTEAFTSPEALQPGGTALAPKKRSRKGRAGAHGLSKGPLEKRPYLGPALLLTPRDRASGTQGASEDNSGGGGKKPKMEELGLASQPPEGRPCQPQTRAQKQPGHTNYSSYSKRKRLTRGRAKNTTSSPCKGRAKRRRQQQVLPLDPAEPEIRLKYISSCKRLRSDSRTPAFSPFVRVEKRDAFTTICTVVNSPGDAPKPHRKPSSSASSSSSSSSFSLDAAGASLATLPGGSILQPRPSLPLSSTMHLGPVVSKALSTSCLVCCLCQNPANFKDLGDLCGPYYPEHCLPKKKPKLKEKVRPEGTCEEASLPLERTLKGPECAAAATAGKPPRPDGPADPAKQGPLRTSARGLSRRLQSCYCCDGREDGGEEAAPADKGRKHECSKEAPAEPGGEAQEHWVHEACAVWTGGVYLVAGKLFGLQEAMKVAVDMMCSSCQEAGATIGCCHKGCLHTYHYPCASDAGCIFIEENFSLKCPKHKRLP
UniProt Q9UGU0: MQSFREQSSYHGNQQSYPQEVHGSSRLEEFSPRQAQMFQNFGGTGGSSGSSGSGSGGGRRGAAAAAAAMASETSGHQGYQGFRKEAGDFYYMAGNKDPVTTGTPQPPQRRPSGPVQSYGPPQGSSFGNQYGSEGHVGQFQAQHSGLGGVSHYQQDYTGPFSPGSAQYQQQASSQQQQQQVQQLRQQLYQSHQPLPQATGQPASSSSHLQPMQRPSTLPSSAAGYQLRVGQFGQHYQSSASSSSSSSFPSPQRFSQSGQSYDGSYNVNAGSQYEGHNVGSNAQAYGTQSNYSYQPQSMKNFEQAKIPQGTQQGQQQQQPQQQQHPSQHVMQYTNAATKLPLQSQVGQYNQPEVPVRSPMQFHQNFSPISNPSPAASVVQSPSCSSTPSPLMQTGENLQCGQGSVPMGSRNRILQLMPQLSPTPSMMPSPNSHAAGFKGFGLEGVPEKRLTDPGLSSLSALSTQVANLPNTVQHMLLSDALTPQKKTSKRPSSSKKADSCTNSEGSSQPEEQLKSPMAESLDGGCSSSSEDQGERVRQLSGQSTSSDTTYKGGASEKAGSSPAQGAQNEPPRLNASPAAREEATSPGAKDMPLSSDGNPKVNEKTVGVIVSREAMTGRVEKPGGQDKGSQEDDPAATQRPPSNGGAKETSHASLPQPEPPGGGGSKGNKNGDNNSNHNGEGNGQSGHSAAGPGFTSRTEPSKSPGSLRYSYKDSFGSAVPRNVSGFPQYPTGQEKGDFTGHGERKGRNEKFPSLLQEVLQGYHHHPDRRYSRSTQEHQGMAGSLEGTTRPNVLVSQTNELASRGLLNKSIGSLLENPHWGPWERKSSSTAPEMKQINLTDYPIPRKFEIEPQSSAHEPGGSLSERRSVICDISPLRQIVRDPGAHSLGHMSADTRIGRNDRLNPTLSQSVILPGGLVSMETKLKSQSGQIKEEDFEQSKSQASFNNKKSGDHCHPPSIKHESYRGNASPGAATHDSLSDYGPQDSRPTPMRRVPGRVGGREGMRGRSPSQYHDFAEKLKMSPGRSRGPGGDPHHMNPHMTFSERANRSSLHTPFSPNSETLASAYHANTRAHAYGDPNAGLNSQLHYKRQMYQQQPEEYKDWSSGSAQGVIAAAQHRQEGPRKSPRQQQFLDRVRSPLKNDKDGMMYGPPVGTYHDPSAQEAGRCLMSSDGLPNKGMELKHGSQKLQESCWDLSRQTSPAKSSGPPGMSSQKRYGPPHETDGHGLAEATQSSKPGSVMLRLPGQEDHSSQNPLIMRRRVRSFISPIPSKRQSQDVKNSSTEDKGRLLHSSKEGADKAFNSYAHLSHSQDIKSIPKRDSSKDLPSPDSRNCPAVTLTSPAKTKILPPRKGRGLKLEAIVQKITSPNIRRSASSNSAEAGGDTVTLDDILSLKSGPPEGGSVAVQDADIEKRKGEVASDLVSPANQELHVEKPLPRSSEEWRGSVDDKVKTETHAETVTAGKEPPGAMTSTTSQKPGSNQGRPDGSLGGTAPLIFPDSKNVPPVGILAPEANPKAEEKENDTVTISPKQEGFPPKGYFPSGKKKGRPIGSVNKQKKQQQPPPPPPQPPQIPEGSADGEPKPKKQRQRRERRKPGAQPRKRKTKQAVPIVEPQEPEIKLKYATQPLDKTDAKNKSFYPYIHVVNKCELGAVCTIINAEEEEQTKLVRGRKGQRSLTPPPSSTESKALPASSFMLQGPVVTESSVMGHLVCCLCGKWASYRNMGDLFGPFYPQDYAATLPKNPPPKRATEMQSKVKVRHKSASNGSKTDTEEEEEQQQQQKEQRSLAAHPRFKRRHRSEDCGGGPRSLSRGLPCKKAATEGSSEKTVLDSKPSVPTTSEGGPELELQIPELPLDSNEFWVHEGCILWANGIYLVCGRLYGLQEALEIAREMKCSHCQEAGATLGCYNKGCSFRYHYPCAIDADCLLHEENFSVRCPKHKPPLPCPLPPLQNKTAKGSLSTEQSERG

Target: GFP-HMG20A (N-terminally GFP-tagged High Mobility Box 20A), stably expressed in HeLa Kyoto cells (human) (UniProt Q9NP66)
Test: affinity purification with mass spectrometry

binding: binds
Molecule: PHF21A (from UniProt Q96BD5 1-680)

binding: binds
Molecule: RCOR1 (from UniProt Q9UKL0 1-485)

binding: binds
Molecule: RCOR3 (from UniProt Q9P2K3 1-495)

binding: binds
Molecule: Retinoic Acid Induced 1 (RAI1) (from UniProt Q7Z5J4 1-1906)

binding: binds
Molecule: Transcription Factor 20 (TCF20) (from UniProt Q9UGU0 1-1960)

binding: binds
B1: HMG20B (protein, UniProt Q9P0W2 1-317)
chain: MSHGPKQPGAAAAPAGGKAPGQHGGFVVTVKQERGEGPRAGEKGSHEEEPVKKRGWPKGKKRKKILPNGPKAPVTGYVRFLNERREQIRTRHPDLPFPEITKMLGAEWSKLQPTEKQRYLDEAEREKQQYMKELRAYQQSEAYKMCTEKIQEKKIKKEDSSSGLMNTLLNGHKGGDCDGFSTFDVPIFTEEFLDQNKAREAELRRLRKMNVAFEEQNAVLQRHTQSMSSARERLEQELALEERRTLALQQQLQAVRQALTASFASLPVPGTGETPTLGTLDFYMARLHGAIERDPAQHEKLIVRIKEILAQVASEHL

binding: binds
B2: zinc finger protein ZNF512B (protein, UniProt Q96KM6 1-892)
chain: MTDPFCVGGRRLPGSSKSGPGKDGSRKEVRLPMLHDPPKMGMPVVRGGQTVPGQAPLCFDPGSPASDKTEGKKKGRPKAENQALRDIPLSLMNDWKDEFKAHSRVKCPNSGCWLEFPSIYGLKYHYQRCQGGAISDRLAFPCPFCEAAFTSKTQLEKHRIWNHMDRPLPASKPGPISRPVTISRPVGVSKPIGVSKPVTIGKPVGVSKPIGISKPVSVGRPMPVTKAIPVTRPVPVTKPVTVSRPMPVTKAMPVTKPITVTKSVPVTKPVPVTKPITVTKLVTVTKPVPVTKPVTVSRPIVVSKPVTVSRPIAISRHTPPCKMVLLTRSENKAPRATGRNSGKKRAADSLDTCPIPPKQARPENGEYGPSSMGQSSAFQLSADTSSGSLSPGSRPSGGMEALKAAGPASPPEEDPERTKHRRKQKTPKKFTGEQPSISGTFGLKGLVKAEDKARVHRSKKQEGPGPEDARKKVPAAPITVSKEAPAPVAHPAPGGPEEQWQRAIHERGEAVCPTCNVVTRKTLVGLKKHMEVCQKLQDALKCQHCRKQFKSKAGLNYHTMAEHSAKPSDAEASEGGEQEERERLRKVLKQMGRLRCPQEGCGAAFSSLMGYQYHQRRCGKPPCEVDSPSFPCTHCGKTYRSKAGHDYHVRSEHTAPPPEEPTDKSPEAEDPLGVERTPSGRVRRTSAQVAVFHLQEIAEDELARDWTKRRMKDDLVPETARLNYTRPGLPTLNPQLLEAWKNEVKEKGHVNCPNDCCEAIYSSVSGLKAHLASCSKGAHLAGKYRCLLCPKEFSSESGVKYHILKTHAENWFRTSADPPPKHRSQDSLVPKKEKKKNLAGGKKRGRKPKERTPEEPVAKLPPRRDDWPPGCRDKGARGSTGRKVGVSKAPEK

binding: binds
B3: GSE1 (protein, UniProt Q14687 1-1217)
chain: MKGMSHEPKSPSLGMLSTATRTTATVNPLTPSPLNGALVPSGSPATSSALSAQAAPSSSFAAALRKLAKQAEEPRGSSLSSESSPVSSPATNHSSPASTPKRVPMGPIIVPPGGHSVPSTPPVVTIAPTKTVNGVWRSESRQDAGSRSSSGGRERLIVEPPLPQEKAGGPAIPSHLLSTPYPFGLSPSSVVQDSRFPPLNLQRPVHHVVPPSTVTEDYLRSFRPYHTTDDLRMSSLPPLGLDPATAAAYYHPSYLAPHPFPHPAFRMDDSYCLSALRSPFYPIPTPGSLPPLHPSAMHLHLSGVRYPPELSHSSLAALHSERMSGLSAERLQMDEELRREREREREREREREADREREKEREREREKEREQEKEREREKERERELERQREQRAREKELLAAKALEPSFLPVAELHGLRGHATEERGKPSEQLTPTRAEKLKDAGLQAPKPVQHPLHPVPTPHHTVPSLISNHGIFSLPSSSAATALLIQRTNEEEKWLARQRRLRQEKEDRQSQVSEFRQQVLEQHLDMGRPPVPAEAEHRPESTTRPGPNRHEPGGRDPPQHFGGPPPLISPKPQLHAAPTALWNPVSLMDNTLETRRAESHSLHSHPAAFEPSRQAAVPLVKVERVFCPEKAEEGPRKREPAPLDKYQPPPPPPREGGSLEHQPFLPGPGPFLAELEKSTQTILGQQRASLPQAATFGELSGPLKPGSPYRPPVPRAPDPAYIYDEFLQQRRRLVSKLDLEERRRREAQEKGYYYDLDDSYDESDEEEVRAHLRCVAEQPPLKLDTSSEKLEFLQLFGLTTQQQKEELVAQKRRKRRRMLRERSPSPPTIQSKRQTPSPRLALSTRYSPDEMNNSPNFEEKKKFLTIFNLTHISAEKRKDKERLVEMLRAMKQKALSAAVADSLTNSPRDSPAVSLSEPATQQASLDVEKPVGVAASLSDIPKAAEPGKLEQVRPQELSRVQELAPASGEKARLSEAPGGKKSLSMLHYIRGAAPKDIPVPLSHSTNGKSKPWEPFVAEEFAHQFHESVLQSTQKALQKHKGSVAVLSAEQNHKVDTSVHYNIPELQSSSRAPPPQHNGQQEPPTARKGPPTQELDRDSEEEEEEDDEDGEDEEEVPKRKWQGIEAVFEAYQEHIEEQNLERQVLQTQCRRLEARHYSLSLTAEQLSHSVAELRSQKQKMVSERERLQAELDHLRKCLALPAMHWPRGYLKGYPR

binding: binds
B4: BEND3 (protein, UniProt Q5T5X7 1-828)
chain: MNSTEFTEDVEEVLKSITVKVETEAEDAALDCSVNSRTSEKHSVDSVLTALQDSSKRKQLVSDGLLDSVPGVKRRRLIPEALLAGMRNRENSSPCQGNGEQAGRGRSLGNVWPGEEEPCNDATTPSYKKPLYGISHKIMEKKNPPSGDLLNVYELFEKANASNSPSSLRLLNEPQKRDCGSTGAGTDNDPNIYFLIQKMFYMLNTLTSNMSQLHSKVDLLSLEVSRIKKQVSPTEMVAKFQPPPEYQLTAAELKQIVDQSLSGGDLACRLLVQLFPELFSDVDFSRGCSACGFAAKRKLESLHLQLIRNYVEVYYPSVKDTAVWQAECLPQLNDFFSRFWAQREMEDSQPSGQVASFFEAEQVDPGHFLDNKDQEEALSLDRSSTIASDHVVDTQDLTEFLDEASSPGEFAVFLLHRLFPELFDHRKLGEQYSCYGDGGKQELDPQRLQIIRNYTEIYFPDMQEEEAWLQQCAQRINDELEGLGLDAGSEGDPPRDDCYDSSSLPDDISVVKVEDSFEGERPGRRSKKIWLVPIDFDKLEIPQPDFEVPGADCLLSKEQLRSIYESSLSIGNFASRLLVHLFPELFTHENLRKQYNCSGSLGKKQLDPSRIKLIRHYVQLLYPRAKNDRVWTLEFVGKLDERCRRRDTEQRRSYQQQRKVHVPGPECRDLTSYAINPERFREEFEGPPLPPERSSKDFCKIPLDELVVPSPDFPVPSPYLLSDKEVREIVQQSLSVGNFAARLLVRLFPELFTAENLRLQYNHSGACNKKQLDPTRLRLIRHYVEAVYPVEKMEEVWHYECIPSIDERCRRPNRKKCDILKKAKKVEK

binding: binds
B5: L3MBTL3 (protein, UniProt Q96JM7 1-780)
chain: MTESASSTSGQEFDVFSVMDWKDGVGTLPGSDLKFRVNEFGALEVITDENEMENVKKATATTTWMVPTAQEAPTSPPSSRPVFPPAYWTSPPGCPTVFSEKTGMPFRLKDPVKVEGLQFCENCCQYGNVDECLSGGNYCSQNCARHIKDKDQKEERDVEEDNEEEDPKCSRKKKPKLSLKADTKEDGEERDDEMENKQDVRILRGSQRARRKRRGDSAVLKQGLPPKGKKAWCWASYLEEEKAVAVPAKLFKEHQSFPYNKNGFKVGMKLEGVDPEHQSVYCVLTVAEVCGYRIKLHFDGYSDCYDFWVNADALDIHPVGWCEKTGHKLHPPKGYKEEEFNWQTYLKTCKAQAAPKSLFENQNITVIPSGFRVGMKLEAVDKKNPSFICVATVTDMVDNRFLVHFDNWDESYDYWCEASSPHIHPVGWCKEHRRTLITPPGYPNVKHFSWDKYLEETNSLPAPARAFKVKPPHGFQKKMKLEVVDKRNPMFIRVATVADTDDHRVKVHFDGWNNCYDYWIDADSPDIHPVGWCSKTGHPLQPPLSPLELMEASEHGGCSTPGCKGIGHFKRARHLGPHSAANCPYSEINLNKDRIFPDRLSGEMPPASPSFPRNKRTDANESSSSPEIRDQHADDVKEDFEERTESEMRTSHEARGAREEPTVQQAQRRSAVFLSFKSPIPCLPLRWEQQSKLLPTVAGIPASKVSKWSTDEVSEFIQSLPGCEEHGKVFKDEQIDGEAFLLMTQTDIVKIMSIKLGPALKIFNSILMFKAAEKNSHNEL
